Source: patent US20140154252A1
These are yes or no findings as the source states them, for the method shown. Some binding calls cover weakened binding; strength is not graded here.

Sequences of proteins named here, by UniProt entry; tags and fusion partners are left off. Residues count along the entry.
UniProt P10747, residues 19-220: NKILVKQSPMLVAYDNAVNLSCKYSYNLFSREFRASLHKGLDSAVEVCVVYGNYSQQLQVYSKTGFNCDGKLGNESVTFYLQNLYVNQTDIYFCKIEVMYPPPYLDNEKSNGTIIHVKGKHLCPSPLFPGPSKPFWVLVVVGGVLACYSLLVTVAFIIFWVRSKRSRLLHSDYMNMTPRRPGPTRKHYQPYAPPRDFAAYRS

B1: 2H7-sss-hIgG-L6-2e12 (H6 linker, 2e12 VL-VH) (bispecific antibody, not shown: a dimerising Fc or GST)
chain (part 1 of 2): QIVLSQSPAILSASPGEKVTMTCRASSSVSYMHWYQQKPGSSPKPWIYAPSNLASGVPARFSGSGSGTSYSLTISRVEAEDAATYYCQQWSFNPPTFGAGTKLELKDGGGSGGGGSGGGGSSQAYLQQSGAESVRPGASVKMSCKASGYTFTSYNMHWVKQTPRQGLEWIGAIYPGNGDTSYNQKFKGKATLTVDKSSSTAYMQLSSLTSEDSAVYFCARVVYYSNSYWYFDVWGTGTTVTVSEPKSSDKTHTSPPSP
chain (part 2 of 2): GGGGSGGGGSGGGGSGNSDIVLTQSPASLAVSLGQRATISCRASESVEYYVTSLMQWYQQKPGQPPKLLISAASNVESGVPARFSGSGSGTDFSLNIHPVEEDDIAMYFCQQSRKVPWTFGGGTKLEIKRGGGGSGGGGSGGGGSQVQLKESGPGLVAPSQSLSITCTVSGFSLTGYGVNWVRQPPGKGLEWLGMIWGDGSTDYNSALKSRLSITKDNSKSQVFLKMNSLQTDDTARYYCARDGYSNFHYYVMDYWGQGTSVTVSS
B2: 2H7-sss-hIgG-L5-2e12 (H5 linker, 2e12 VL-VH) (bispecific antibody, not shown: a dimerising Fc or GST)
chain (part 1 of 2): B1 chain (part 1 of 2)
chain (part 2 of 2): NYGGGGSGGGGSGNSDIVLTQSPASLAVSLGQRATISCRASESVEYYVTSLMQWYQQKPGQPPKLLISAASNVESGVPARFSGSGSGTDFSLNIHPVEEDDIAMYFCQQSRKVPWTFGGGTKLEIKRGGGGSGGGGSGGGGSQVQLKESGPGLVAPSQSLSITCTVSGFSLTGYGVNWVRQPPGKGLEWLGMIWGDGSTDYNSALKSRLSITKDNSKSQVFLKMNSLQTDDTARYYCARDGYSNFHYYVMDYWGQGTSVTVSS
B3: 2H7-sss-hIgG-L4-2e12 (H4 linker, 2e12 VL-VH) (bispecific antibody, not shown: a dimerising Fc or GST)
chain (part 1 of 2): B1 chain (part 1 of 2)
chain (part 2 of 2): GGGGSGGGGSGNSDIVLTQSPASLAVSLGQRATISCRASESVEYYVTSLMQWYQQKPGQPPKLLISAASNVESGVPARFSGSGSGTDFSLNIHPVEEDDIAMYFCQQSRKVPWTFGGGTKLEIKRGGGGSGGGGSGGGGSQVQLKESGPGLVAPSQSLSITCTVSGFSLTGYGVNWVRQPPGKGLEWLGMIWGDGSTDYNSALKSRLSITKDNSKSQVFLKMNSLQTDDTARYYCARDGYSNFHYYVMDYWGQGTSVTVSS
B4: 2H7-sss-hIgG-L1-2e12 (H1 linker, 2e12 VL-VH) (bispecific antibody, not shown: a dimerising Fc or GST)
chain (part 1 of 2): B1 chain (part 1 of 2)
chain (part 2 of 2): NSDIVLTQSPASLAVSLGQRATISCRASESVEYYVTSLMQWYQQKPGQPPKLLISAASNVESGVPARFSGSGSGTDFSLNIHPVEEDDIAMYFCQQSRKVPWTFGGGTKLEIKRGGGGSGGGGSGGGGSQVQLKESGPGLVAPSQSLSITCTVSGFSLTGYGVNWVRQPPGKGLEWLGMIWGDGSTDYNSALKSRLSITKDNSKSQVFLKMNSLQTDDTARYYCARDGYSNFHYYVMDYWGQGTSVTVSS
B5: 2H7-sss-hIgG-L3-2e12 (H3 linker, 2e12 VL-VH) (bispecific antibody, not shown: a dimerising Fc or GST)
chain (part 1 of 2): B1 chain (part 1 of 2)
chain (part 2 of 2): NYGGGGSGNSDIVLTQSPASLAVSLGQRATISCRASESVEYYVTSLMQWYQQKPGQPPKLLISAASNVESGVPARFSGSGSGTDFSLNIHPVEEDDIAMYFCQQSRKVPWTFGGGTKLEIKRGGGGSGGGGSGGGGSQVQLKESGPGLVAPSQSLSITCTVSGFSLTGYGVNWVRQPPGKGLEWLGMIWGDGSTDYNSALKSRLSITKDNSKSQVFLKMNSLQTDDTARYYCARDGYSNFHYYVMDYWGQGTSVTVSS
B6: 2H7-sss-hIgG-L2-2e12 (H2 linker, 2e12 VL-VH) (bispecific antibody, not shown: a dimerising Fc or GST)
chain (part 1 of 2): B1 chain (part 1 of 2)
chain (part 2 of 2): GGGGSGNSDIVLTQSPASLAVSLGQRATISCRASESVEYYVTSLMQWYQQKPGQPPKLLISAASNVESGVPARFSGSGSGTDFSLNIHPVEEDDIAMYFCQQSRKVPWTFGGGTKLEIKRGGGGSGGGGSGGGGSQVQLKESGPGLVAPSQSLSITCTVSGFSLTGYGVNWVRQPPGKGLEWLGMIWGDGSTDYNSALKSRLSITKDNSKSQVFLKMNSLQTDDTARYYCARDGYSNFHYYVMDYWGQGTSVTVSS

molecular target: CD28 presented on CHO cells (UniProt P10747); experiment: flow cytometry on CD28 CHO cells, protein A purified protein at 0.72 ug/ml, FITC goat anti-human IgG

binding, binds:
B1
B2
B3
B4
B5
B6

molecular target: CD28 presented on CHO cells (UniProt P10747); experiment: flow cytometry on CD28 CHO cells, purified protein at 0.72 ug/ml

binding, binds:
B1
B2
B3
B4
B5
B6
